Reference: PubChem BioAssay AID1053208 (Peter MacCallum Cancer Centre, 2014)
In all, the deposit lists about 17,000 reagents; this is a part drawn at random. 788 of all reagents (4.7%) count as active. 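Calls rest on z-score classes alone; an extra cut-off of viability at most 70% of control was not applied to them.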

Screen: 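Synthetic lethal interactions between gene loss and doxorubicin in osteosarcoma cells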 (primary screen)
System: mouse osteosarcoma cells, early-passage culture from an engineered mouse model of fibroblastic bone tumour
Reagents: siRNA pool against mouse genes, 40 nM
Duration: about 120 h (48 h before drug, then 72 h with drug)
Challenge: doxorubicin 100 nM for 72 h, roughly 30-40% inhibitory dose
Measured: 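Viability read as ATP luminescence after 72 h of 100 nM doxorubicin or none, duplicate wells averaged, scaled to non-targeting siRNA, then expressed as robust z-scores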
Direction: viability z-score with doxorubicin and doxorubicin viability vs non-targeting: higher = more viable cells under doxorubicin; viability z-score without drug: higher = more viable cells with knock-down alone; z-score of drug to no-drug ratio: higher = less drug sensitisation by knock-down
Hit rule: 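a pool counts as active when its viability z-score with doxorubicin is -2 or below and its z-score without drug lies between -2 and 2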

| gene symbol | combined z-score class | viability z-score with doxorubicin | viability z-score without drug | z-score of drug to no-drug ratio | doxorubicin viability vs non-targeting | call |
| --- | --- | --- | --- | --- | --- | --- |
| Tmem186 (transmembrane protein 186) | low cell count with doxorubicin only | -2.02 | -0.84 | -1.57 | 0.76 | active |
| Anxa1 (annexin A1) | no change with or without drug | -1.57 | -1.52 | -0.56 | 0.8 | inactive |
| 5730453H04RIK | high cell count with and without drug | 2.59 | 2.7 | 0.79 | 1.17 | inactive |
| Pomgnt2 | no change with or without drug | -0.79 | -0.51 | -0.34 | 0.87 | inactive |
| Gldn (gliomedin) | no change with or without drug | 1.69 | 0.51 | 1.46 | 1.09 | inactive |
| Cyb561d2 (cytochrome b-561 domain containing 2) | no change with or without drug | 1.35 | -0.17 | 1.69 | 1.06 | inactive |
| Plpp2 (phospholipid phosphatase 2) | no change with or without drug | -0.45 | 0.34 | -0.56 | 0.9 | inactive |
| Aff1 (AF4/FMR2 family, member 1) | no change with or without drug | 0.34 | -0.51 | 0.79 | 0.97 | inactive |
| Kyat1 (kynurenine aminotransferase 1) | no change with or without drug | -0.67 | -0.51 | -0.22 | 0.88 | inactive |
| Mup4 (major urinary protein 4) | no change with or without drug | -0.22 | -1.18 | 0.79 | 0.92 | inactive |
| Kpna3 (karyopherin subunit alpha 3) | no change with or without drug | 0 | -1.35 | 1.12 | 0.94 | inactive |
| Atf6 (activating transcription factor 6) | no change with or without drug | -1.57 | -1.18 | -0.79 | 0.8 | inactive |
| Med4 (mediator complex subunit 4) | no change with or without drug | 1.12 | 0.17 | 1.12 | 1.04 | inactive |
| Gid4 (GID complex subunit 4, VID24 homolog) | no change with or without drug | -0.67 | 0.51 | -0.9 | 0.88 | inactive |
| Gpr20 (G protein-coupled receptor 20) | no change with or without drug | -0.22 | 1.52 | -1.12 | 0.92 | inactive |
| Zdhhc15 (zinc finger, DHHC domain containing 15) | no change with or without drug | 0.79 | 1.52 | -0.11 | 1.01 | inactive |
| Sucnr1 (succinate receptor 1) | no change with or without drug | 1.46 | 0.51 | 1.24 | 1.07 | inactive |
| Cd99 (CD99 antigen) | no change with or without drug | 1.12 | 1.18 | 0.45 | 1.04 | inactive |
| Mc5r (melanocortin 5 receptor) | no change with or without drug | 1.57 | 1.18 | 0.9 | 1.08 | inactive |
| Igbp1 (immunoglobulin (CD79A) binding protein 1) | no change with or without drug | -1.57 | -0.67 | -1.12 | 0.8 | inactive |
| Or5b102 (olfactory receptor family 5 subfamily B member 102) | no change with or without drug | -0.22 | 0.84 | -0.67 | 0.92 | inactive |
| Angptl4 (angiopoietin-like 4) | low cell count with and without drug | -2.7 | -2.7 | -1.01 | 0.7 | inactive |
| Zfp202 (zinc finger protein 202) | no change with or without drug | -1.91 | -1.18 | -1.12 | 0.77 | inactive |
| Bkgd (beta-keto-L-gulonate decarboxylase) | high cell count without drug only | 0.9 | 2.36 | -0.45 | 1.02 | inactive |
| Mysm1 (myb-like, SWIRM and MPN domains 1) | no change with or without drug | -0.11 | -0.84 | 0.56 | 0.93 | inactive |
| Ewsr1 (Ewing sarcoma breakpoint region 1) | no change with or without drug | -0.22 | 1.18 | -0.9 | 0.92 | inactive |
| Gnpda1 (glucosamine-6-phosphate deaminase 1) | no change with or without drug | -0.22 | -0.84 | 0.45 | 0.92 | inactive |
| Slc25a20 | no change with or without drug | 0.56 | 0.51 | 0.34 | 0.99 | inactive |
| Zfp65 (zinc finger protein 65) | no change with or without drug | 1.35 | 0.84 | 0.9 | 1.06 | inactive |
| Bcl6 (B cell leukemia/lymphoma 6) | no change with or without drug | 0.9 | -0.51 | 1.46 | 1.02 | inactive |
| Cd46 (CD46 antigen, complement regulatory protein) | no change with or without drug | 0 | -1.35 | 1.12 | 0.94 | inactive |
| Eif4a3 (eukaryotic translation initiation factor 4A3) | low cell count with doxorubicin only | -2.92 | -1.69 | -2.02 | 0.68 | active |
| Tnrc18 (trinucleotide repeat containing 18) | no change with or without drug | 0.34 | 0.84 | -0.11 | 0.97 | inactive |
| Slc10a6 | no change with or without drug | 0.9 | 0.84 | 0.45 | 1.02 | inactive |

Entries above called active:
| gene symbol | combined z-score class | viability z-score with doxorubicin | viability z-score without drug | z-score of drug to no-drug ratio | doxorubicin viability vs non-targeting | call |
| --- | --- | --- | --- | --- | --- | --- |
| Tmem186 (transmembrane protein 186) | low cell count with doxorubicin only | -2.02 | -0.84 | -1.57 | 0.76 | active |
| Eif4a3 (eukaryotic translation initiation factor 4A3) | low cell count with doxorubicin only | -2.92 | -1.69 | -2.02 | 0.68 | active |
